From publication PMC2655719
No constants are given. Whether binding was seen depends on the method and setting. Some binding calls cover weakened binding; strength is not graded here. Sequences can lack the tags named with a protein.

Protein sequences, listed by entry. Tags and fused reporters are not part of them. Lines headed by an entry give the natural chain unless they say otherwise; changes in a name come on top.
UniProt P61224: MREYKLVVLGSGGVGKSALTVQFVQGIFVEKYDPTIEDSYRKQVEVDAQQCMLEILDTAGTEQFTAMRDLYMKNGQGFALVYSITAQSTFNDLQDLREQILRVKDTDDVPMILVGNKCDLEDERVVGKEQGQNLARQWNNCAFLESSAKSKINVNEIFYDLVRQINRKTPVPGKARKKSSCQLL

Molecular target: Gal4p DNA binding domain fusion of Rap1B (glycine-12-to-valine) (UniProt P61224)
Test: two-hybrid; S. cerevisiae PJ69-4A; GTPases fused to the Gal4p DNA binding domain (pGBT9), RBDs fused to the Gal4p activation domain (pACTII); growth on SDA-Leu-Trp-His with 3AT

binding: binds
B1: Gal4p activation domain fusion of RGS14 (amino acids 263-544) (domain or fragment, UniProt O08773 263-544)
chain: NSSASLDLGFLAFVSSKSESHRKSLGSGEGESESRPGKYCCVYLPDGTASLALARPGLTIRDMLAGICEKRGLSLPDIKVYLVGKEQKALVLDQDCTVLADQEVRLENRITFQLELVGLERVVRISAKPTKRLQEALQPILAKHGLSLDQVVLHRPGEKQLVDLENLVSSVASQTLVLDTLPDAKTREASSIPPCRSQGCLPRTQTKDSHLPPLSSSLSVEDASGSTGKRQTCDIEGLVELLNRVQSSGAHDQRGLLRKEDLVLPEFLQLPSQRPGSQEAPP
